This passage reports binding results from article PMC6828677.

By UniProt entry, the sequences of proteins in these tests, tags left out.
UniProt P25963: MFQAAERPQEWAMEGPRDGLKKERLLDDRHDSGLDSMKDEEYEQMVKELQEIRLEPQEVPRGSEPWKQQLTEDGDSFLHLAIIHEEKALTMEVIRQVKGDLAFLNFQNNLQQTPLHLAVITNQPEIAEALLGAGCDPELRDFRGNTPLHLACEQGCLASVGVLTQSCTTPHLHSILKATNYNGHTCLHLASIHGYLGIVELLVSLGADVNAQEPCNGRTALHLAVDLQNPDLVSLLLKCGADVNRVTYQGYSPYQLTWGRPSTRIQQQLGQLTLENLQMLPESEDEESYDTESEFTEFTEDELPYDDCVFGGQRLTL
UniProt Q7Z6E9: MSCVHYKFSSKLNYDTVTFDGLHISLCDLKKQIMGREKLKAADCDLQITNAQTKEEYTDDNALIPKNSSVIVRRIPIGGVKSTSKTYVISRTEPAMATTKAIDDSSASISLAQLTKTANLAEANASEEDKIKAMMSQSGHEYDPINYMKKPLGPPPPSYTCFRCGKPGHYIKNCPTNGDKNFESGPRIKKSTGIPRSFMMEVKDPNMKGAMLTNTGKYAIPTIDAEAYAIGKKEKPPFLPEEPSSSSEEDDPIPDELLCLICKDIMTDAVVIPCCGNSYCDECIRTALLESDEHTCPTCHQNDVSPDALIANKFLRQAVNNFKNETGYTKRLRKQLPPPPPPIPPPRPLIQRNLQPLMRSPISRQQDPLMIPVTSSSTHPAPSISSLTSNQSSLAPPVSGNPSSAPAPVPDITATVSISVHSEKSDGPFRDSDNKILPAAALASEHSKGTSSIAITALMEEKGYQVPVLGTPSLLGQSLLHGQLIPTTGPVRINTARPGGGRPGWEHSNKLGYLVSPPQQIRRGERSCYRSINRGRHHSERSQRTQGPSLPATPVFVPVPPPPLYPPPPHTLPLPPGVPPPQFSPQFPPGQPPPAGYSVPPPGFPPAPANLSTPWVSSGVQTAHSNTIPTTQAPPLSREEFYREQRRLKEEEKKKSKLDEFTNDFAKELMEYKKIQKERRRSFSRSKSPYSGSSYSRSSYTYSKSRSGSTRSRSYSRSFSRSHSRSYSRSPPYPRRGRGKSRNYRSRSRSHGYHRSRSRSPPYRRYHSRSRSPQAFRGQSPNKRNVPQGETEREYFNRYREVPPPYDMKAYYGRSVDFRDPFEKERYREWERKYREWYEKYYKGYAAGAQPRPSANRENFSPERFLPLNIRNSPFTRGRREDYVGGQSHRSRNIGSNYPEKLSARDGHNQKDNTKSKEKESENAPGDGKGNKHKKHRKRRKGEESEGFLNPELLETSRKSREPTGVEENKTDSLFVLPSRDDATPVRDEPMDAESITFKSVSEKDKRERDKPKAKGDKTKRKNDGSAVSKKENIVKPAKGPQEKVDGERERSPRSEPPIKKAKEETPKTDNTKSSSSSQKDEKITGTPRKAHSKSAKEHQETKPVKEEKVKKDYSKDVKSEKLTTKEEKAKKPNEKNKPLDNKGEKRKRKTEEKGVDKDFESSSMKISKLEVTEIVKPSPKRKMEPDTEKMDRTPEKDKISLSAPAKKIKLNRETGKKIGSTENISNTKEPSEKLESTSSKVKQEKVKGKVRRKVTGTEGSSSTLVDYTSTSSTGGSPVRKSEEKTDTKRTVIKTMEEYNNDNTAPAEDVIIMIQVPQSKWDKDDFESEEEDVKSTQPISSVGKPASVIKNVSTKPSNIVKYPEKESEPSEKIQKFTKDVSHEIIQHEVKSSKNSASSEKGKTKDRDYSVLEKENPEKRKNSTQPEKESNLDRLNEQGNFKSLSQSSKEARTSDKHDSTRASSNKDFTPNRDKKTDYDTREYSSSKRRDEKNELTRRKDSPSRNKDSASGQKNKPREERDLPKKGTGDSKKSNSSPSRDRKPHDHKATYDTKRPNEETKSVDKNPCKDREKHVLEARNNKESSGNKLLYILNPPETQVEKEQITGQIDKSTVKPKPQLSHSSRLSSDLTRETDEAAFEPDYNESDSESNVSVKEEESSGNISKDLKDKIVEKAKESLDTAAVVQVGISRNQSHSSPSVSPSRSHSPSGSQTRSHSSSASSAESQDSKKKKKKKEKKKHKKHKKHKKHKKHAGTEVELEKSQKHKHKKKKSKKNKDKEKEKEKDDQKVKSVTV

These are yes or no findings as the source states them, for the method shown. In cells and extracts the contact can be indirect. Some results given as binding are weak or reduced against the parent protein; the word gives no strength.

The experiment addresses Flag-IκBα (UniProt P25963). As to the kind of experiment: co-IP; HEK293 cells co-transfected with Flag-IκBα and HA-RBBP6 (full length or ΔRing Finger); lysates incubated with 2 μg antibody at 4 °C overnight, protein A/G agarose beads 4 h at 4 °C, PBS washes, western blot. For orientation: A western blot detects proteins with antibodies after separation by electrophoresis.

As to “HA-RBBP6 (full length) (from UniProt Q7Z6E9 1-1792)”, the binding result is “binds”.
